Drawing on doi:10.1101/616896, this text covers binding for 1 substance.

Results are given in words; binding and its absence hold for the method and conditions named. Where a sequence is shown, tags or fusion partners need not be part of it.

The target of the experiment is T1, CT288 (BACTH fusion) (C. trachomatis serovar L2) (UniProt O84290).
T1 sequence: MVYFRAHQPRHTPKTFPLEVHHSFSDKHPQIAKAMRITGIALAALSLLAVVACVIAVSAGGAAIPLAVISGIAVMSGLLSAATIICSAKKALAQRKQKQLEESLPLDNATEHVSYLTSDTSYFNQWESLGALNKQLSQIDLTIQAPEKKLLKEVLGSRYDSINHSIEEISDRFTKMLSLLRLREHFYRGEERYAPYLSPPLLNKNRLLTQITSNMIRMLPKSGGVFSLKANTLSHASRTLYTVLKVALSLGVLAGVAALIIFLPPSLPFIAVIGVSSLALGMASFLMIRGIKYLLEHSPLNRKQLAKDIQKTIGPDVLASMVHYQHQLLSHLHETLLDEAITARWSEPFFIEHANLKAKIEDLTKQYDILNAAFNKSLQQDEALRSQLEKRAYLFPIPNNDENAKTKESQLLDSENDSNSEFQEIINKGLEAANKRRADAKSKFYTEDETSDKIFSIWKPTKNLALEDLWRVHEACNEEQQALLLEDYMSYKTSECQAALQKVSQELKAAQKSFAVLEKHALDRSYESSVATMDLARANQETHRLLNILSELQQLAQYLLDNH
The experiment in a line: two-hybrid.

As to LRRF1 (BACTH fusion) (human), the binding entry is on record as “no binding”.
